Data reported in PubChem BioAssay AID485314 (National Center for Advancing Translational Sciences (NCATS), 2010).
Screen size: about 340,000 compounds; about 4,500 (1.3%) were called active. The shares of active, inactive and inconclusive entries below differ from those in the screen. Calls come from the whole dose curve; as a rule, active = well fitted inhibition curve with a large enough effect; inconclusive = small, poorly fitted or top-dose-only effect, or another doubt; inactive = no such curve, though single readings can be large or run the other way. A potency beside an inconclusive call is a rough fit, not a confirmed value.

Target: DNA polymerase beta (Homo sapiens) (UniProt P06746)
Experiment: qHTS Assay for Inhibitors of DNA Polymerase Beta
Conditions: Pol beta primer extension/strand displacement, fluorescence kinetic; activity change, negative = inhibition: at 114 µM (top of the series)
Method in brief: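 Curves were derived by four-parameter Hill fits of normalized qHTS data. The kinetic fluorescent primer-extension read was taken at 0 and 10 min after 50 nM substrate, following a 15 min room-temperature preincubation of 10 nM enzyme with compounds.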
% is set by controls: 0 for no effect and ±100 for the full control effect; potency is the fitted concentration of half-maximal effect.

SMILES	activity change, negative = inhibition	Potency
COc1cc(OC)cc(C(=O)NNC(=O)C(=O)Nc2cc(OC)c(Cl)cc2OC)c1	inconclusive: -32.4% [inhibitor]	
C=CCNc1nc(NCCO)nc(N2CCCC2)n1		inconclusive: 22.4 µM [inhibitor, partial curve, poor fit]
O=C(O)CCCNC(=O)CCCn1nnc2ccccc2c1=O	inconclusive: -44.5% [inhibitor]	
O=C(CCl)N1N=C(c2ccco2)CC1c1cccs1 (configuration not stated)		inconclusive: 39.8 µM [inhibitor, partial curve]
CC(=O)Nc1ccc(OCC(O)Cn2nc(C)c(Br)c2C)cc1 (configuration not stated)		inconclusive: 39.8 µM [inhibitor, single point]
COC(=O)c1cc(NC(=O)c2c(F)c(F)c(F)c(F)c2F)cc(C(=O)OC)c1	inactive: 11.4%	
Cc1cccc(C)c1NC(=S)NC(=O)c1ccc(Br)o1		inconclusive: 39.8 µM [inhibitor, partial curve]
COc1ccc(S(=O)(=O)N(CC(=O)NCCSc2ccc(C)cc2)c2ccc(C)cc2)cc1		inconclusive: 0.794 µM [inhibitor, partial curve]
CC(C)c1ccc(C(CC(=O)c2ccc(Cl)cc2)C(=O)O)cc1 (configuration not stated)		inconclusive: 3.98 µM [inhibitor, full curve, poor fit]
Cc1ccccc1Nc1nn2c(=O)c3ccc(C(=O)NCC(C)c4ccccc4)cc3nc2s1 (configuration not stated)	inactive: 0.788%	
O=c1c2[nH]c3ccccc3c2ncn1CCC1=CCCCC1		inconclusive: 5.01 µM [inhibitor, full curve, poor fit]
CC1=C(c2ccc(C(C)C)cc2)S(=O)(=O)N=C1N1CCN(c2ccccc2F)CC1		inconclusive: 89.1 µM [inhibitor, single point]
CN(C)/C=C/C(=O)c1cnc(-c2cccc(Cl)c2)s1		inconclusive: 44.7 µM [inhibitor, partial curve]
CCOc1ccccc1NC(=O)Cn1nnc(C(=O)NCc2cccs2)c1N	inconclusive: -35.6% [inhibitor]	inconclusive: 20 µM [inhibitor, full curve]
CCOc1ccccc1NC(=O)c1cc(-c2ccncc2)nc2c(Cl)cccc12		active: 15.8 µM
COCCn1nnnc1C(c1ccccn1)N1CCN(c2cc(C)ccc2C)CC1 (configuration not stated)		inconclusive: 89.1 µM [inhibitor, single point]
COc1cc(/C=C/c2ccc3cccc([N+](=O)[O-])c3n2)ccc1OCC(=O)O		inconclusive: 14.1 µM [inhibitor, full curve, poor fit]
COc1ccc(-n2c(Cc3cccn3C)nnc2SCC(=O)NCc2ccco2)cc1		active: 39.8 µM
COc1ccc(NC(=S)N(CCCN2CCOCC2)Cc2cn(C)c3ccccc23)cc1OC		inconclusive: 79.4 µM [inhibitor, single point]
COc1ccc(-c2ccc(C3C(C#N)=C(N)Oc4n[nH]c(C)c43)o2)cc1 (configuration not stated)		inconclusive: 0.891 µM [inhibitor, full curve]
O=C(O)CSc1ncnc2sc3c(c12)CCC3		inconclusive: 14.1 µM [inhibitor, full curve]
C/C(=N\Nc1nc(-c2ccc(C)cc2)nc2ccccc12)c1ccc([N+](=O)[O-])cc1		inconclusive: 12.6 µM [inhibitor, partial curve, poor fit]

SMILES	activity change, negative = inhibition	Potency
O=C(Nc1ncccc1O)c1c(O)c2ccccc2[nH]c1=O		inconclusive: 70.8 µM [inhibitor, single point]
Cc1[nH]c2ccccc2c1/C=N/NC(=O)c1cccc(Br)c1		inconclusive: 0.355 µM [inhibitor, full curve, poor fit]
CN1CCN(C(CNC(=O)C(=O)Nc2ccc(Cl)cc2)c2cccnc2)CC1 (configuration not stated)	inactive: -6.85%	
Cc1ccc(-c2nnn(CC(=O)Nc3ccc(S(=O)(=O)N4CCC(C)CC4)cc3)n2)cc1		active: 35.5 µM
CCSc1nc(N)c(C#N)c(-c2ccccc2Cl)c1C#N		inconclusive: 31.6 µM [inhibitor, single point]
Cc1cc(=O)oc2cc(OCC(=O)N/N=C/c3cc([N+](=O)[O-])ccc3O)ccc12		active: 31.6 µM
CCOC(=O)c1sc(NC(=O)C2CC=CCC2C(=O)O)nc1C (configuration not stated)		active: 44.7 µM
CC(C)COc1ccc(/C(=N/O)c2ccccc2)cc1		inconclusive: 39.8 µM [inhibitor, partial curve, poor fit]
COc1cccc(N2CC(NC(=O)c3cc4ccccc4o3)CC2=O)c1 (configuration not stated)		inconclusive: 89.1 µM [inhibitor, single point]
Cc1cnc(CN2CCCC(C(=O)c3ccc4c5c(cccc35)CC4)C2)[nH]1 (configuration not stated)		inconclusive: 89.1 µM [inhibitor, single point]
O=C(c1cccs1)N1C(=O)c2cccc3cccc1c23		inconclusive: 39.8 µM [inhibitor, full curve]
Cc1ccc(S(=O)(=O)NCc2ccc(C(=O)NCCc3ccc(S(N)(=O)=O)cc3)cc2)cc1		inconclusive: 63.1 µM [inhibitor, single point]
O=C(COc1ccc2c3c(c(=O)oc2c1)CCCC3)NCc1ccccn1		inconclusive: 25.1 µM [inhibitor, single point]
COc1ccc(C(C)=O)cc1COC(=O)CNC(=O)c1ccc(Cl)cc1		inconclusive: 89.1 µM [inhibitor, single point]
O=C(CCn1c(=S)[nH]c2cc3c(cc2c1=O)OCO3)NCc1cccc(Cl)c1	inactive: 14.2%	
CCCSc1nnc(-c2ccccc2N)c(=O)[nH]1		inconclusive: 89.1 µM [inhibitor, single point]
CCOc1ccc(CNC(=O)c2ccc3c(Cl)c4c(nc3c2)CCCC4)cc1	inactive: 16.8%	
Cc1cc2c(=O)n(Cc3ccco3)c(SCC(=O)NCc3ccco3)nc2s1		inconclusive: 7.08 µM [inhibitor, partial curve]
CCN(CC)c1ccc(NC(=O)C2CC(=O)N(Cc3ccccc3)C2)cc1 (configuration not stated)	inactive: -1.87%	
COc1ccccc1NC(=O)CSc1nc2n[nH]c(C)c2c(=N)n1-c1ccccc1Cl		inconclusive: 89.1 µM [inhibitor, single point]
COc1cccc(/C=N/NC(=S)Nc2cccc(C(=O)O)c2)c1O	inactive: -13.2%	
CN(c1ccccc1)S(=O)(=O)c1cccc(NC(=O)c2cncc(Br)c2)c1	inconclusive: -35.7% [inhibitor]	

Filtered by structure: those above containing bromine.
SMILES	activity change, negative = inhibition	Potency
CC(=O)Nc1ccc(OCC(O)Cn2nc(C)c(Br)c2C)cc1 (configuration not stated)		inconclusive: 39.8 µM [inhibitor, single point]
Cc1cccc(C)c1NC(=S)NC(=O)c1ccc(Br)o1		inconclusive: 39.8 µM [inhibitor, partial curve]
Cc1[nH]c2ccccc2c1/C=N/NC(=O)c1cccc(Br)c1		inconclusive: 0.355 µM [inhibitor, full curve, poor fit]
CN(c1ccccc1)S(=O)(=O)c1cccc(NC(=O)c2cncc(Br)c2)c1	inconclusive: -35.7% [inhibitor]	

Continuation:

SMILES	activity change, negative = inhibition	Potency
CCN(CC)c1ccc(C2C(C(=O)OC)=C(C)NC(C)=C2C(=O)OC)cc1		inconclusive: 0.1 µM [inhibitor, full curve, poor fit]
O=C(O)c1ccc2c3c(cccc13)C(=O)N(OS(=O)(=O)c1ccccc1)C2=O		inconclusive: 14.1 µM [inhibitor, full curve]
CN=c1scc(-c2ccc(F)cc2)n1/N=C/c1ccc(O)c(O)c1		active: 5.01 µM
O=C(Nc1nc2ccccc2s1)C1CCCN1S(=O)(=O)c1ccc(Cl)cc1 (configuration not stated)		inconclusive: 39.8 µM [inhibitor, partial curve, poor fit]
CCCNC(=O)c1cc2cc([N+](=O)[O-])ccc2s1		inconclusive: 0.355 µM [inhibitor, full curve, poor fit]
CC(=O)c1sc(Nc2nc3cc4c(cc3s2)OCO4)nc1C		inconclusive: 3.55 µM [inhibitor, partial curve]
Cc1ccc(-c2cc(C(=O)NCc3ccco3)c3ccccc3n2)s1		inconclusive: 63.1 µM [inhibitor, partial curve, poor fit]
CN(CC(=O)Nc1cccc(F)c1)C(=O)CSc1ccccc1F		active: 44.7 µM
COc1cccc(OC)c1C(=O)Nc1ccc(-c2nc3ncccc3o2)cc1		inconclusive: 39.8 µM [inhibitor, partial curve]
Cc1ccc(NC(=O)c2c3c(nc4ccccc24)CCC3)cc1S(=O)(=O)N(C)C		active: 10 µM
COc1cccc(C(=O)N(Cc2cccc(F)c2)C2CCS(=O)(=O)C2)c1 (configuration not stated)		inconclusive: 28.2 µM [inhibitor, single point]
CCOC(=O)c1scc(-c2ccccc2)c1S(=O)(=O)N1CCN(c2ccc(Cl)cc2)CC1		inconclusive: 89.1 µM [inhibitor, single point]
CCN(CC)c1cc(C)c2cc(NC(=O)c3ccc(OC)c(OC)c3)ccc2n1		active: 12.6 µM
Cc1ccc(S(=O)(=O)NC2OC(=O)C(Cl)=C2Cl)cc1 (configuration not stated)		inconclusive: 44.7 µM [inhibitor, partial curve]
COc1ccc(CC2(CO)CCN(Cc3cccn3-c3ccccn3)CC2)cc1		inconclusive: 89.1 µM [inhibitor, single point]
Cc1ccsc1/C=N/NC(=O)c1ccc(-n2cccc2)cc1		inconclusive: 50.1 µM [inhibitor, partial curve]
CCOC(=O)CCC(=O)N1CCOCCN(C(=O)CCC(=O)OCC)CCOCC1		inconclusive: 2.51 µM [inhibitor, full curve]
[O-][n+]1c2ccccc2[n+]([O-])c2cc(O)ccc21		active: 22.4 µM
COc1ccc(-c2ccc(NS(=O)(=O)c3ccc(NC(C)=O)cc3)cc2)nn1		inconclusive: 89.1 µM [inhibitor, single point]
CCN(CC)c1ccc(NC(=O)c2c(C)nn(-c3ccc(F)cc3)c2-n2cccc2)c(C)c1	inactive: 16.7%	
COc1ccc(OC)c(NC(=O)c2c(NCc3cccs3)sc3c2CCCCC3)c1	inactive: -1.66%	
Cc1cc(NC(=O)c2cncc(Br)c2)ccc1NC(=O)c1cc2ccccc2o1		inconclusive: 50.1 µM [inhibitor, single point]
